Source: article PMC12362098, “Dimerization of Cdc13 is essential for dynamic DNA exchange on telomeric DNA” (The Journal of Biological Chemistry, 2025)
Results are given in words; binding and its absence hold for the method and conditions named.

Legend:
Cdc13-L91R [1] = biological target: T1, Cdc13-L91R (Saccharomyces cerevisiae, UniProt P32797 1-924, L91R); assay: mass photometry; 1x DNA-binding buffer with 50 nM Tel30G ssDNA, 11.25 nM protein, room temperature; both purified
T1 sequence: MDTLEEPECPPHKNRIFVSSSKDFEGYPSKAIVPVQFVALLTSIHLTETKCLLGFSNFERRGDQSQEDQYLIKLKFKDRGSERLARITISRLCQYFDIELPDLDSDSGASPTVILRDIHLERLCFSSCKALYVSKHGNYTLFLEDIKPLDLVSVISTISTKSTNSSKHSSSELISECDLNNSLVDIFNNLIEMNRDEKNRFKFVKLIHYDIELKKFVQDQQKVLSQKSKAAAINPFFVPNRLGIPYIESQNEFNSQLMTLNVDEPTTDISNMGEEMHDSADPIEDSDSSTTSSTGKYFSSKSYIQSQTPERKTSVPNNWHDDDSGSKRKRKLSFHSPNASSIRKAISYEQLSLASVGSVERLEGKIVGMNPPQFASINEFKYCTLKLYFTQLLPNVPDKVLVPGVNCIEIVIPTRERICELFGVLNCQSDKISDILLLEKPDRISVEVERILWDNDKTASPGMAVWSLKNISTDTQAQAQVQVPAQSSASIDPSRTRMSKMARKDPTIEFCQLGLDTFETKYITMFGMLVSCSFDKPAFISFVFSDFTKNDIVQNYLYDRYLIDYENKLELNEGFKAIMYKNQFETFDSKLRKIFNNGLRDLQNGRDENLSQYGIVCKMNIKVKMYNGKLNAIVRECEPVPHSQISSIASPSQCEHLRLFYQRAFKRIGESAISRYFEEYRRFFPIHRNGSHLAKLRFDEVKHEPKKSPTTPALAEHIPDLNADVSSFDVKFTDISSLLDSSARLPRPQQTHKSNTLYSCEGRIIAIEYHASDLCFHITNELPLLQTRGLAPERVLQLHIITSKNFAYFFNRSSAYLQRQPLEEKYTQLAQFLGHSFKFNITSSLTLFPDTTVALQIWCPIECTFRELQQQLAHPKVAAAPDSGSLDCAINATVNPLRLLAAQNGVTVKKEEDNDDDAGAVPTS

Cdc13-L91R [2] = biological target: T1, Cdc13-L91R; assay: mass photometry; 1x DNA-binding buffer with 50 nM Tel50G ssDNA, 11.25 nM protein, room temperature; both purified
Cdc13-L91R [3] = biological target: T1, Cdc13-L91R; assay: mass photometry; protein alone in 1x DNA-binding buffer (25 mM HEPES pH 8.0, 50 mM NaOAc, 150 mM NaCl, 7.5 mM MgCl2), 11.25 nM protein, room temperature; both purified

binding (Cdc13-L91R [1]): no binding (tested: 11.25 nM)
binding (Cdc13-L91R [2]): no binding (tested: 11.25 nM)
binding (Cdc13-L91R [3]): no binding (tested: 11.25 nM)
B1: Cdc13-L91R (protein, UniProt P32797 1-924)
chain: T1 sequence
